From patent US20250120971A1, “NOVEL DRUG TREATMENT OF COGNITIVE IMPAIRMENTS ASSOCIATED WITH SCHIZOPHRENIA” (FLORIDA ATLANTIC UNIVERSITY BOARD OF TRUSTEES, priority 2021, published 2025)

Experiments:
[1] = tested on: KET mouse model of psychosis or schizophrenia-like behavior; assay: Object recognition memory task after systemic (IP) SK channel activator; assay type: in vivo, mouse (male C57BL/6J); settings: SAL and KET mice; CyPPA 15.0 mg/kg IP; exploration time, distance traveled, velocity
Experimental: SK Drug Administration. To test the effect of the SK2 specific activator, CyPPA on long-term memory for objects, two KET groups and two SAL groups of male C57BL/6J mice were randomly assigned to receive either VEH or CyPPA (15.0 mg/kg) IP 30 min prior to the sample session of an object recognition memory task. Separate groups received CyPPA (7.5 mg/kg) IP or VEH 30 min prior to the sample session.
Arena Habituation. Mice were habituated to the arena prior to testing recognition memory. Thirty minutes prior to each arena habituation (AH) session, each mouse was restrained gently and momentarily, given a mock IP injection with a 26-gauge needle, and then placed into an empty polycarbonate cage. […] Afterwards, each mouse was returned to the polycarbonate cage and then returned to its home cage. Activity was recorded and automatically scored using Noldus Ethovision XT (version 7.0). Distance traveled was defined as the sum of recorded movement of the center point of the mouse in cm over the duration of the trial. […]
Sample Session. […] Sample session behavior was video tracked via Ethovision XT and recordings were analyzed off-line to determine object exploration times for each mouse. […]
Statistical Analysis. Object exploration was determined for each mouse based on the manual scoring of behavior from the recorded video files of the sample and test sessions. […]

[2] = tested on: KET mouse model of psychosis; assay: Object recognition memory task after intrahippocampal (CA1) microinfusion; assay type: in vivo; settings: KET mice; CyPPA 1 μg/μl, 0.35 μl/side bilateral intra-CA1

Cc1cc(NC2CCCCC2)nc(-n2nc(C)cc2C)n1 [CyPPA]
attention and motivation to explore the objects during the sample session [1]: not affected | total object exploration time, sample session (Mdn) [2]: 62.190 s
